For 14 substances, binding results are on record in publication PMC8495200.

No constants are given. Whether binding was seen depends on the method and setting. Binding seen in cells or lysates may run through a third protein. Here binding means that the protein was enriched with, or labelled near, the bait; the list need not be complete.

The target in one experiment is BirA-UBXD9 (D. discoideum) (UniProt Q54X06). In words: proximity labelling; BioID: AX2/BirA-UBXD9 cells with 50 uM biotin for 16 h against AX2, streptavidin sepharose beads, mass spectrometry; four replicates, fold change > 1.4 and p < 0.05.
Take “Eukaryotic peptide chain release factor (from UniProt Q9BMX0)”: the binding result was “binds”. Still for that read-out and setting: to “p97, endogenous (from UniProt P90532 1-793) (enzyme)” belongs “binds”.

For another experiment, the target named is UBXD9-GFP (C-terminally tagged UBXD9) (D. discoideum) (UniProt Q54X06). Put plainly: affinity purification with mass spectrometry; GFP-trap beads, soluble proteins of AX2 cells expressing UBXD9-GFP or GFP-UBXD9 against AX2/GFP; four replicates, fold change > 1.4 and p < 0.05.
In the case of “ADP-ribosylation factor 1 (from UniProt O00909 1-182)”, the binding entry is “binds”. Still for that read-out and setting: as for “Actin-binding protein F (from UniProt Q54ET6 1-2364)”, the entry is “binds”; as for “Cysteine proteinase 5 (from UniProt P54640) (enzyme)”, “binds”; as for “Drebrin-like protein (from UniProt Q557J6)”, “binds”.

In the case of “Eukaryotic peptide chain release factor (from UniProt Q9BMX0)”, the binding entry is on record as “binds”. As for “Lysine–tRNA ligase (from UniProt Q54TY4) (enzyme)”, the binding entry was “binds”. For the substance “Myosin-J heavy chain (from UniProt P54697 1-2245)”, the binding result is listed as “binds”.

For the substance “Probable arginine–tRNA ligase (from UniProt Q558Z0) (enzyme)”, the binding result was “binds”.

Regarding “Probable serine/threonine-protein kinase DDB_G0277449 (from UniProt Q8MYF1) (enzyme)”, the binding entry was “binds”. On the same count and under the same terms, to “Putative bifunctional amine oxidase (from UniProt Q54EW2)” belongs “binds”; to “Ran binding protein 1 domain-containing protein (from UniProt Q54KD9)”, “binds”; to “V-type proton ATPase subunit G (from UniProt Q54Z13)”, “binds”. The same measure, in the same setting: as for “cAMP-binding protein 1 (from UniProt P19198)”, the entry is “binds”. Same read-out and setting: to “p97, endogenous (from UniProt P90532 1-793) (enzyme)” belongs “binds”.
